Results are given in words; binding and its absence hold for the method and conditions named. In cells and extracts the contact can be indirect. Some results given as binding are weak or reduced against the parent protein; the word gives no strength. Tags and fused reporters may be left off the sequences shown.
Experiments:
[1] = target: T1, MIEF1^Δ296-337 (V5-tagged) (human) (UniProt Q9NQG6); assay: co-IP; 293T cells transfected with V5-tagged MIEF1, MIEF2 or deletion mutants, in vivo crosslinked with 1% formaldehyde (10 min, room temperature), lysed in 1% NP-40 with sonication; anti-V5 agarose beads 2 h at room temperature; Western blot of endogenous partners
T1 sequence: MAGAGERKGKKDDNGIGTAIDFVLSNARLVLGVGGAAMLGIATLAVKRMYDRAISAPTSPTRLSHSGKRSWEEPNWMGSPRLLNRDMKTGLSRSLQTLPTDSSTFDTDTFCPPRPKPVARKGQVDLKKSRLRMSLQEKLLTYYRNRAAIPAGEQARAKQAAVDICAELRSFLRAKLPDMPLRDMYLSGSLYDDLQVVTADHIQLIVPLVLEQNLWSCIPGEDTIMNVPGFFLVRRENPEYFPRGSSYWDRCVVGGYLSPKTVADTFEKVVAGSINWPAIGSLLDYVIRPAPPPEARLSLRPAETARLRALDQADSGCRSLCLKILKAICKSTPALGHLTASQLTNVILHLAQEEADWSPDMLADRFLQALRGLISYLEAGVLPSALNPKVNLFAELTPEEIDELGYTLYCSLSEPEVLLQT

Protein sequences, listed by entry. Tags and fused reporters are not part of them.
UniProt O00429: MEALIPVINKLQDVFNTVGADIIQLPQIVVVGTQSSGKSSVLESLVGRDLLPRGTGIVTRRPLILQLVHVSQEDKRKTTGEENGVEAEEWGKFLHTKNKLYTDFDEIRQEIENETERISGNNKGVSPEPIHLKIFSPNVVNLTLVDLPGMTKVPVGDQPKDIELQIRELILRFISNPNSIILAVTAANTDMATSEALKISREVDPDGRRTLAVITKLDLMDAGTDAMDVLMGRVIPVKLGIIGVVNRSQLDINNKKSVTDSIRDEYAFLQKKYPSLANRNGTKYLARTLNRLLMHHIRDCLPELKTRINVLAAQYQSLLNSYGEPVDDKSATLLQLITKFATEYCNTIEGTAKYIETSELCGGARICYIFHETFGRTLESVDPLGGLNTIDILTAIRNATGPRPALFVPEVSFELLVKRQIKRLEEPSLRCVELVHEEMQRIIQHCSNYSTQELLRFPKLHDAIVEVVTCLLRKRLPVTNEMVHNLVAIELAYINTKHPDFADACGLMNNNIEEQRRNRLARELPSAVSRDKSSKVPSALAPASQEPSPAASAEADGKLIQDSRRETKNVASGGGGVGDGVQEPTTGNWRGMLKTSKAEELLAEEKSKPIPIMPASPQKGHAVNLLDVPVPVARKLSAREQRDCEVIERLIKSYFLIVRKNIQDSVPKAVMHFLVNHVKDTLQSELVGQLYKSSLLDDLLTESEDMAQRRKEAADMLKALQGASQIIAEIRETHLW

[2] = target: T2, MIEF1^Δ50-108 (V5-tagged) (human) (UniProt Q9NQG6); assay: as above
T2 sequence: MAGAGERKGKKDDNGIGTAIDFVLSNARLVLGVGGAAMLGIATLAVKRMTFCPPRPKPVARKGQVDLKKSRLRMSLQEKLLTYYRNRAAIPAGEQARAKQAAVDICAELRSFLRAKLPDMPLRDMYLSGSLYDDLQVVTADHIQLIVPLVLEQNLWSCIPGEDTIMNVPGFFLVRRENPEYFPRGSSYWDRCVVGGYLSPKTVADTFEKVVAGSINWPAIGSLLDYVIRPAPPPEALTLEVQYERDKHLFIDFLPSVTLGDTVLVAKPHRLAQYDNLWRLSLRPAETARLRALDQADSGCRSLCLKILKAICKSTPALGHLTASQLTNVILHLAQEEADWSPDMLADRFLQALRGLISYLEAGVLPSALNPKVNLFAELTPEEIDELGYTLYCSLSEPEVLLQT

[3] = target: T3, MIEF2^Δ50-104 (V5-tagged, self-association-deficient mutant) (human) (UniProt Q96C03); assay: as above
T3 sequence: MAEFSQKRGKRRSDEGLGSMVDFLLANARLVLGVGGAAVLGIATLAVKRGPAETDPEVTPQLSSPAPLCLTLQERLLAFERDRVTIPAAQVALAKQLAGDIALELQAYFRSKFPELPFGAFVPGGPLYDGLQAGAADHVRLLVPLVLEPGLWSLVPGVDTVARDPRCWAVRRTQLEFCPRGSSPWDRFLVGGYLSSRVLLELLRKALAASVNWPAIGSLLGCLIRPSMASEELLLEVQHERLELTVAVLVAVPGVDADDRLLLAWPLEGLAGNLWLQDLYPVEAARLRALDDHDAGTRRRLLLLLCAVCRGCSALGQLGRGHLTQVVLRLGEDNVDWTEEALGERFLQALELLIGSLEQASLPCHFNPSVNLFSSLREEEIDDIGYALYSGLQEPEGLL

[4] = target: T4, MIEF2^Δ151-160-V5 (Drp1 binding-deficient mutant) (human) (UniProt Q96C03); assay: co-IP; 293T cells transfected with MIEF1-V5, MIEF1^Δ160-169-V5, MIEF2-V5 or MIEF2^Δ151-160-V5; anti-V5 beads; Western blot (Fig. 5b); crosslinking not mentioned
T4 sequence: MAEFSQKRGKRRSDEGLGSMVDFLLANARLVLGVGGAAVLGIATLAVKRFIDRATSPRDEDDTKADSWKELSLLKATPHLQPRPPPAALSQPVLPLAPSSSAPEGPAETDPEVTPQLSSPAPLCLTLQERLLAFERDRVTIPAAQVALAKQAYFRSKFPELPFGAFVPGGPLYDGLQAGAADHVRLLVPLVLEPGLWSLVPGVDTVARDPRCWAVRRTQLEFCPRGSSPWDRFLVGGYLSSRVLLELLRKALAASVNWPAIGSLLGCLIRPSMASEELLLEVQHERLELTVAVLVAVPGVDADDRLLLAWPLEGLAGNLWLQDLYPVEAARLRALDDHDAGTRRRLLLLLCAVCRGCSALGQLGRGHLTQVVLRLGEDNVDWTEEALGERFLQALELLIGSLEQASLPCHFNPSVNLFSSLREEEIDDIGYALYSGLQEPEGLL

[5] = target: T5, MIEF1^Δ160-169-V5 (Drp1 binding-deficient mutant) (human) (UniProt Q9NQG6); assay: as above
T5 sequence: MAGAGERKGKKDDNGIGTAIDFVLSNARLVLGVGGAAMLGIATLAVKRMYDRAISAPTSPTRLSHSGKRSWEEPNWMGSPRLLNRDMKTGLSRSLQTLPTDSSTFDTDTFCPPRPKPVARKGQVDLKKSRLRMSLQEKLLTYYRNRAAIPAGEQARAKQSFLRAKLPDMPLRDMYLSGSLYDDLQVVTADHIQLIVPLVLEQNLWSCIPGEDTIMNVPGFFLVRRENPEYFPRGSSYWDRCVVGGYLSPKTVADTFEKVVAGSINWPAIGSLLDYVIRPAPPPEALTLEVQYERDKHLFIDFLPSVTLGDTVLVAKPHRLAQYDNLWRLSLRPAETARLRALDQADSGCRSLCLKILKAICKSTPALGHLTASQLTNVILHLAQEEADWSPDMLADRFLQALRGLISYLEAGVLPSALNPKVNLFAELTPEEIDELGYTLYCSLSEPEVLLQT

“dynamin-related protein 1 (Drp1), endogenous (from UniProt O00429 1-736)” was tested, and the binding [1] was “no binding”, the binding [2] was “binds” and the binding [3] was “binds”. For the same substance, the binding [4] was “no binding” and the binding [5] was “no binding”.

— article PMC8532385
